Measurements from PubChem BioAssay AID651640 (Broad Institute, 2012).
Hit rate of the full screen: of about 350,000 compounds, about 6,000 (1.7%) were called active. The inconclusive results got no clear call from the source; some entries with a clear call stand among them for comparison. Rule as the data show it: active = CPE inhibition above about 20% (passing the limit was not always enough); inconclusive = no clear call, values can overlap the other calls; tested in BHK-21 cells.

Assay: protection of cells from dengue 2 killing – plate reader, single concentration, primary screen (AID 651640);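 also: 0% = median of neutral control wells and 100% = median of positive control wells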
Details: DENV2-infected cells, cytopathic effect rescue, at 9.99 µM, stronger effect = higher value

Row | Compound | CPE inhibition
1 | CC(/C=C1\SC(=S)N(NS(=O)(=O)c2ccc(C)cc2)C1=O)=C\c1ccccc1 | inconclusive: 21.4%
2 | CO[C@@H]1CN(C)C(=O)c2cc(NC(=O)c3ccccc3)ccc2OC[C@H](C)N(C(=O)C2CC2)C[C@@H]1C | active: 95.5%
3 | C[C@@H]1CN([C@@H](C)CO)C(=O)c2cccc(NC(=O)c3ccc(-c4nccs4)cc3)c2O[C@H]1CN(C)Cc1ccc(Oc2ccccc2)cc1 | inconclusive: 35.6%
4 | COc1ccc(N2CCN(C(=O)c3cc(C)oc3C)CC2)cc1 | inconclusive: 24.6%
5 | C[C@@H]1CN([C@H](C)CO)C(=O)c2cc(NC(=O)Cn3cnnn3)ccc2O[C@H]1CN(C)Cc1ccc(Cl)c(Cl)c1 | inactive: -1.54%
6 | C#CCC1c2ccccc2CCN1CC=C (centres undefined) | inconclusive: 22.3%
7 | O=C(C[C@H]1C=C[C@@H](NC(=O)CN2CCOCC2)[C@@H](CO)O1)NC1CCCCC1 | inactive: 3.3%
8 | CC(C)NC(=O)Nc1cccc2c1O[C@@H](CN(C)C(=O)Nc1ccccc1)[C@H](C)CN([C@H](C)CO)C2=O | inactive: -0.038%
9 | COc1ccc(NC(=O)Nc2ccc3c(c2)C(=O)N([C@H](C)CO)C[C@H](C)[C@@H](CN(C)S(=O)(=O)c2cn(C)cn2)OCCCC[C@H](C)O3)cc1 | inconclusive: 23.4%
10 | C[C@@H]1CN([C@@H](C)CO)C(=O)c2cccc(NS(=O)(=O)c3ccc(Cl)cc3)c2O[C@H]1CN(C)Cc1ccncc1 | inconclusive: 29.7%
11 | C/C=C\C=C/C(=O)Nc1cccc(C2=NOC3(C2)C[C@@H](C(N)=O)N(C(=O)COc2ccc(Cl)cc2)C3)c1 (some centres undefined) | inconclusive: 25.9%
12 | CC(=Nc1ccccc1)C1=C(O)CCCC1=O | inconclusive: 36.1%
13 | CCCCSc1nnc(-c2ccccc2NC(C)=O)c(=O)[nH]1 | inactive: -3.72%
14 | CCOC(=O)[C@]12CCC=C1N(Cc1cccc3ccccc13)C(=O)[C@H](CC(=O)N1CCCC1)C2 | active: 37.3%
15 | Cc1cc(NC(=O)c2ccc([N+](=O)[O-])cc2)n(CCC#N)n1 | active: 42.9%
16 | Cc1noc(C)c1S(=O)(=O)Nc1ccc2c(c1)CC(=O)N([C@H](C)CO)C[C@H](C)[C@@H](CN(C)C(=O)Nc1cccc3ccccc13)O2 | inactive: -3.89%
17 | C=CCn1c(=O)c2ccccc2n2c(SC(C)C(N)=O)nnc12 (centres undefined) | inconclusive: 30%
18 | CCCNC(=O)Nc1ccc2c(c1)C(=O)N(C)C[C@H](OC)[C@H](C)CN(CCC)[C@@H](C)CO2 | inactive: 5.19%
19 | Nc1ncnc(N)c1NC(=O)c1ccccc1 | inconclusive: 59%

A draw from above in order of molecular weight, smallest number first:
Row | Compound | CPE inhibition
15 | Cc1cc(NC(=O)c2ccc([N+](=O)[O-])cc2)n(CCC#N)n1 | active: 42.9%
2 | CO[C@@H]1CN(C)C(=O)c2cc(NC(=O)c3ccccc3)ccc2OC[C@H](C)N(C(=O)C2CC2)C[C@@H]1C | active: 95.5%
9 | COc1ccc(NC(=O)Nc2ccc3c(c2)C(=O)N([C@H](C)CO)C[C@H](C)[C@@H](CN(C)S(=O)(=O)c2cn(C)cn2)OCCCC[C@H](C)O3)cc1 | inconclusive: 23.4%
